# Data as given in the supplement of paper PMC8728848.
# Some of the results follow.
# B1: Clone646PsrP (Streptococcus pneumoniae) (protein)
# chain: MDHHHHHHHHASENLYFQGAPAINASLNIAKSETKVYTGEGVDSVYRVPIYYKLKVTNDGSKLTFTYTVTYVNPKTNDLGNISSMRPGYSIYNSGTSTQTMLTLGSDLGKPSGVKNYITDKNGRQVLSYNTSTMTTQGSGYTWGNGAQMNGFFAKKGYGLTSSWTVPITGTDTSFTFTPYAARTDRIGINYFNGGGKVVESSTTSQSLSQSKSLSVSAS
# Key:
# Assay in all cases: glycan array binding signal (z-score within array); higher = stronger binding
# Conditions in all cases: glycan notation: IUPAC condensed, linker removed
# [1] = target: Gal(a1-3)Gal(b1-4)GlcNAc(b1-2)Man
# Summary of the method: (§1)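 From the Consortium for Functional Glycomics database, 3228 arrays were curated, keeping only those whose protein sequence was available. Binding is given as a within-array Z-score averaged across arrays sharing a protein sequence and across linkers. Negative Z-scores can be read as non-binding.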
# [2] = target: Gal(a1-3)Gal(b1-4)GlcNAc(b1-2)Man(a1-3)[Gal(a1-3)Gal(b1-4)GlcNAc(b1-2)Man(a1-6)]Man(b1-4)GlcNAc(b1-4)GlcNAc
# Summary of the method: as §1
# [3] = target: Gal(a1-3)Gal(b1-4)GlcNAc(b1-3)GalNAc
# Summary of the method: as §1
# [4] = target: Gal(a1-3)Gal(b1-4)GlcNAc(b1-6)GalNAc
# Summary of the method: as §1
# [5] = target: Gal(a1-3)Gal(b1-4)[Fuc(a1-3)]GlcNAc
# Summary of the method: as §1
# [6] = target: Gal(a1-3)Gal(b1-4)[Fuc(a1-3)]GlcNAc(b1-2)Man(a1-3)[Gal(a1-3)Gal(b1-4)[Fuc(a1-3)]GlcNAc(b1-2)Man(a1-6)]Man(b1-4)GlcNAc(b1-4)GlcNAc
# Summary of the method: as §1
# [7] = target: Gal(a1-3)GalNAc
# Summary of the method: as §1
# [8] = target: Gal(a1-3)[Gal(a1-4)]Gal(b1-4)GlcNAc
# Summary of the method: as §1
# [9] = target: Gal(a1-4)Gal(b1-3)GlcNAc(b1-2)Man(a1-3)[Gal(a1-4)Gal(b1-3)GlcNAc(b1-2)Man(a1-6)]Man(b1-4)GlcNAc(b1-4)GlcNAc
# Summary of the method: as §1
# [10] = target: Gal(a1-4)Gal(b1-4)Glc
# Summary of the method: as §1
# [11] = target: Gal(a1-4)Gal(b1-4)GlcNAc
# Summary of the method: as §1
# [12] = target: Gal(a1-4)Gal(b1-4)GlcNAc(b1-2)Man(a1-3)[Gal(a1-4)Gal(b1-4)GlcNAc(b1-2)Man(a1-6)]Man(b1-4)GlcNAc(b1-4)GlcNAc
# Summary of the method: as §1
# [13] = target: Gal(a1-4)Gal(b1-4)GlcNAc(b1-3)Gal(b1-4)Glc
# Summary of the method: as §1
# [14] = target: Gal(a1-4)GlcNAc
# Summary of the method: as §1
# [15] = target: Gal(a1-6)Glc
# Summary of the method: as §1
# [16] = target: Gal(b1-2)Gal
# Summary of the method: as §1
# [17] = target: Gal(b1-3)Gal
# Summary of the method: as §1
# [18] = target: Gal(b1-3)Gal(b1-4)GlcNAc
# Summary of the method: as §1
# [19] = target: Gal(b1-3)GalNAc
# Summary of the method: as §1
# [20] = target: Gal(b1-3)GalNAc(a1-3)[Fuc(a1-2)]Gal(b1-4)Glc
# Summary of the method: as §1
# [21] = target: Gal(b1-3)GalNAc(a1-3)[Fuc(a1-2)]Gal(b1-4)GlcNAc
# Summary of the method: as §1
# [22] = target: Gal(b1-3)GalNAc(b1-3)Gal
# Summary of the method: as §1
binder,measurement,setting,value
B1,glycan array binding signal (z-score),[1],0.696
same,glycan array binding signal (z-score),[2],-0.478
same,glycan array binding signal (z-score),[3],-0.146
same,glycan array binding signal (z-score),[4],0.15
same,glycan array binding signal (z-score),[5],-0.546
same,glycan array binding signal (z-score),[6],0.635
same,glycan array binding signal (z-score),[7],-0.423
same,glycan array binding signal (z-score),[8],0.128
same,glycan array binding signal (z-score),[9],0.416
same,glycan array binding signal (z-score),[10],2.13
same,glycan array binding signal (z-score),[11],1.08
same,glycan array binding signal (z-score),[12],-0.434
same,glycan array binding signal (z-score),[13],-0.163
same,glycan array binding signal (z-score),[14],1.16
same,glycan array binding signal (z-score),[15],0.015
same,glycan array binding signal (z-score),[16],2.94
same,glycan array binding signal (z-score),[17],-0.642
same,glycan array binding signal (z-score),[18],-0.064
same,glycan array binding signal (z-score),[19],-0.426
same,glycan array binding signal (z-score),[20],-0.437
same,glycan array binding signal (z-score),[21],-0.31
same,glycan array binding signal (z-score),[22],0.765

# Some of the entries above in another layout:
binder | measurement | setting | value
B1 | glycan array binding signal (z-score) | [1] | 0.696
same | glycan array binding signal (z-score) | [2] | -0.478
